Assay results from US9688634B2, “Pest control agent” (priority 2012, dated 2017).
Some of these results come from one statement about several compounds together.

Key:
sweet potato whitefly = assay: Test for Examining Effect on Sweet Potato Whitefly (Test Example 2); assay type: in vivo; details: 200 ppm, sprayed on potted cucumber seedling with first- to second-instar nymphs, 10 days after treatment, 25° C.
[1] = test system: Haemaphysalis longicornis; assay: Test for Examining Effect on Haemaphysalis longicornis (Test Example 3); assay type: in vivo; details: 100 ppm, treated plastic vial, young mites, 24 hours after contact, 25° C., dark
Protocol: Test for Examining Effect on Haemaphysalis longicornis
After the liquid chemical was air-dried, young mites were placed in the vial. This vial was allowed to stand under constant dark conditions at 25° C. and a relative humidity of 80-100%. At 24 hours after the contact with the chemical, the number of dead mites was recorded. The mortality (%) was determined using the following calculation formula. […] Mortality (%)=((number of dead ticks)/(number of all ticks))×100

brown rice planthopper = details: 200 ppm, immersion treatment of rice seedlings, second- to third-instar nymphs, 5 days after release, 25° C.

Structure (SMILES) | preventive value (sweet potato whitefly) | mortality [1] | mortality (brown rice planthopper)
C=CCc1cnccc1C#Cc1ccc(C)cc1 [compound 7] | ≥ 90 | ≥ 90% | ≥ 90%
CCCc1cnccc1C#Cc1ccc(C(C)(C)C)cc1 [compound 15] | ≥ 90 | ≥ 90% | ≥ 90%
C=CCc1cnccc1C#Cc1ccc(C(F)(F)F)cc1 [compound 65] | ≥ 90 | ≥ 90% | ≥ 90%
C=CCc1cnccc1C#Cc1ccc(OC)cc1 [compound 67] | ≥ 90 | ≥ 90% | ≥ 90%
C=CCc1cnccc1C#Cc1ccc(OC(C)C)cc1 [compound 68] | ≥ 90 | ≥ 90% | ≥ 90%
C=CCc1cnccc1C#Cc1ccc(OC(C)(C)C)cc1 [compound 69] | ≥ 90 | ≥ 90% | ≥ 90%
C=CCc1cnccc1C#Cc1ccc(OC(F)(F)F)cc1 [compound 75] | ≥ 90 | ≥ 90% | ≥ 90%
C=CCc1cnccc1C#Cc1ccc(SC)cc1 [compound 79] | ≥ 90 | ≥ 90% | ≥ 90%
C=CCc1cnccc1C#Cc1cccc(C(F)(F)F)c1 [compound 99] | – | ≥ 90% | ≥ 90%
C=CCc1cnccc1C#Cc1ccc(F)cc1F [compound 100] | ≥ 90 | ≥ 90% | ≥ 90%
C=CCc1cnccc1C#Cc1ccc(OCCC)cc1 [compound 140] | ≥ 90 | ≥ 90% | ≥ 90%
CCOCc1cnccc1C#Cc1ccc(C(C)(C)C)cc1 [compound 153] | ≥ 90 | – | ≥ 90%
CCNc1cnccc1C#Cc1ccc(C(F)(F)F)cc1 [compound 154] | ≥ 90 | – | ≥ 90%
COc1cnccc1C#Cc1ccc(C(C)(C)C)cc1.Cl [compound 155] | ≥ 90 | – | ≥ 90%
CCC(O)c1cnccc1C#Cc1ccc(C(C)(C)C)cc1 (stereo not drawn) [compound 156] | ≥ 90 | – | ≥ 90%
C=CCc1cnccc1C#Cc1ccc(C(C)(C)C)cc1.Cl [compound 157] | ≥ 90 | – | ≥ 90%
CC=Cc1cnccc1C#Cc1ccc(F)cc1 [compound 159] | – | ≥ 90% | ≥ 90%
CC=Cc1cnccc1C#Cc1ccc(OC(F)(F)F)cc1 [compound 160] | ≥ 90 | ≥ 90% | ≥ 90%
COc1cnccc1C#Cc1ccc(C2CCCCC2)cc1 [compound 162] | ≥ 90 | – | ≥ 90%
COc1cnccc1C#Cc1ccc(SC)cc1 [compound 163] | ≥ 90 | – | ≥ 90%
COc1cnccc1C#Cc1ccc(S(C)(=O)=O)cc1 [compound 165] | ≥ 90 | – | ≥ 90%
COc1cnccc1C#Cc1ccc(OC(C)(C)C)cc1.Cl [compound 173] | ≥ 90 | – | ≥ 90%
CCOc1cnccc1C#Cc1ccc(C(C)(C)C)cc1.Cl [compound 174] | ≥ 90 | – | ≥ 90%
CCOc1cnccc1C#Cc1ccc(OC(C)(C)C)cc1.Cl [compound 175] | ≥ 90 | – | ≥ 90%
CCOc1cnccc1C#Cc1ccc(C(F)(F)F)cc1 [compound 176] | ≥ 90 | – | ≥ 90%
CCOc1cnccc1C#Cc1ccc(OC(F)(F)F)cc1 [compound 177] | ≥ 90 | – | ≥ 90%
CCOc1cnccc1C#Cc1ccc(SC(F)(F)F)cc1 [compound 178] | ≥ 90 | – | ≥ 90%

Structure (SMILES) | preventive value (sweet potato whitefly) | mortality [1] | mortality (brown rice planthopper)
CCOc1cnccc1C#Cc1ccc(C)cc1 [compound 179] | ≥ 90 | ≥ 90% | ≥ 90%
CCOc1cnccc1C#Cc1ccc(F)cc1 [compound 180] | ≥ 90 | – | ≥ 90%
CCCOc1cnccc1C#Cc1ccc(OC(C)(C)C)cc1 [compound 186] | ≥ 90 | – | ≥ 90%
CCCOc1cnccc1C#Cc1ccc(OC(C)(C)C)cc1.Cl [compound 187] | ≥ 90 | – | ≥ 90%
CCCOc1cnccc1C#Cc1ccc(C(F)(F)F)cc1 [compound 188] | ≥ 90 | – | ≥ 90%
CCCOc1cnccc1C#Cc1ccc(OC(F)(F)F)cc1 [compound 189] | ≥ 90 | – | ≥ 90%
CCCOc1cnccc1C#Cc1ccc(SC(F)(F)F)cc1 [compound 190] | ≥ 90 | – | ≥ 90%
CCCOc1cnccc1C#Cc1ccc(F)cc1 [compound 191] | ≥ 90 | ≥ 90% | ≥ 90%
COCc1cnccc1C#Cc1ccc(OC(C)(C)C)cc1 [compound 193] | ≥ 90 | – | ≥ 90%
COCc1cnccc1C#Cc1ccc(OC(F)(F)F)cc1 [compound 196] | – | ≥ 90% | –
COCc1cnccc1C#Cc1ccc(SC(F)(F)F)cc1 [compound 197] | ≥ 90 | – | ≥ 90%
COCc1cnccc1C#Cc1ccc(F)cc1 [compound 199] | ≥ 90 | – | ≥ 90%
CCOCc1cnccc1C#Cc1ccc(C(C)(C)C)cc1.Cl [compound 200] | ≥ 90 | – | ≥ 90%
CCOCc1cnccc1C#Cc1ccc(OC(C)(C)C)cc1 [compound 201] | ≥ 90 | – | ≥ 90%
CCOCc1cnccc1C#Cc1ccc(C(F)(F)F)cc1 [compound 203] | ≥ 90 | ≥ 90% | –
CCOCc1cnccc1C#Cc1ccc(OC(F)(F)F)cc1 [compound 204] | ≥ 90 | ≥ 90% | –
CCOCc1cnccc1C#Cc1ccc(C)cc1 [compound 206] | ≥ 90 | ≥ 90% | –
CCOCc1cnccc1C#Cc1ccc(F)cc1 [compound 207] | ≥ 90 | ≥ 90% | –
CCCOCc1cnccc1C#Cc1ccc(C(C)(C)C)cc1 [compound 209] | ≥ 90 | – | ≥ 90%
CCSc1cnccc1C#Cc1ccc(C(C)(C)C)cc1 [compound 211] | ≥ 90 | – | ≥ 90%
CC(C)(C)c1ccc(C#Cc2ccncc2CCl)cc1.Cl [compound 212] | ≥ 90 | – | ≥ 90%
CCNc1cnccc1C#Cc1ccc(C)cc1 [compound 224] | ≥ 90 | – | ≥ 90%
CCNc1cnccc1C#Cc1ccc(C(C)(C)C)cc1.Cl [compound 225] | ≥ 90 | – | ≥ 90%
CCNc1cnccc1C#Cc1cccc(C(C)(C)C)c1 [compound 226] | ≥ 90 | – | ≥ 90%
CCN(C)c1cnccc1C#Cc1ccc(C(C)(C)C)cc1 [compound 240] | ≥ 90 | – | ≥ 90%
CCc1cnccc1C#Cc1ccc(C(C)(C)C)cc1 [compound 241] | ≥ 90 | – | ≥ 90%
CCc1cnccc1C#Cc1ccc(C(C)(C)C)cc1.Cl [compound 305] | ≥ 90 | – | ≥ 90%
